From patent US4508711A (American Cyanamid Company, priority 1984, dated 1985)
Some peptides are written in HELM: one residue between dots, names in brackets for other building blocks, links after the first $.

Legend:
[1] = general procedure: Boc solid-phase peptide synthesis; Boc-D-Trp-Merrifield resin (1% cross-linked); details: whole synthesis
[2] = general procedure: Boc solid-phase peptide synthesis; Boc-Phe-Merrifield resin (1% cross-linked); details: whole synthesis, overall, scale 1 mmole

Substance “H-Lys(Boc)-Thr(Bzl)-Ahep-Phe-D-Trp-NHNH2” has a crude mass ([1]; scale 0.5 mmol) of 0.50 g.

In the case of “PEPTIDE1{[Ahep].F.[dW].K.[Thr(Bzl)]}$PEPTIDE1,PEPTIDE1,1:R1-5:R2$$$V2.0”, the isolated yield ([1]; scale of the general procedure 0.5 mmol) is reported as 33%.

With “PEPTIDE1{[Ahep].F.[dW].K.T}$PEPTIDE1,PEPTIDE1,1:R1-5:R2$$$V2.0” the isolated yield [2] was 15%.
